49 sequences from the supplement of paper PMC7877785 can be followed below.

± gives the uncertainty stated by the source. The uncertainty is large for many entries.

A short description of the series: self-splicing fitness, log relative to wild type (ln ratio); higher = more splicing; Tetrahymena group I intron in knt gene, E. coli kanamycin selection, DiMSum; sequences stand for … in CUCUCU…GGAGGGAAAAGUUAUCAGGCAUGCACCUGGUAGCUAGUCUUUAAACCAAUAGAUUGCAUCGGUUUAAAAGGCAAGACCGUCAAAUUGCGGGAAAGGGGUCAACAGCCGUUCAGUACCAAGUCUCAGGGGAAACUUUGAGAUGGCCUUGCAAAGGGUAUGGUAAUAAGCUGACGGACAUGGUCCUAACCACGCAGCCAAGUCCUAAGUCAACAGAUCUUCUGUUGAUAUGGAUGCAGUUCACAGACUAAAUGUCGGUCGGGGAAGAUGUAUUCUUCUCAUAAGAUAUAGUCGGACCUCUCCUUAAUGGGAGCUAGCGGAUGAAGUGAUGCAACACUGGAGCCGCUGGGAACUAAUUUGUAUGCGAAAGUAUAUUGAUUAGUUUUGGAGUACUCGUGGUCG
A digest of the protocol:
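Library with all eight P1ex-region intron nucleotides randomised, intron inside the knt kanamycin-resistance gene on pET-22b(+), in E. coli BL21(DE3). Cells grew overnight at 37°C or 30°C on LB agar with or without 25 μg/mL kanamycin (plus 100 μg/mL carbenicillin, 50 μM IPTG, 0.2% rhamnose), in six replicate transformations. Pooled colonies were amplicon-sequenced on Illumina HiSeq 2500. DiMSum fitness is the error-weighted combination of wild-type-normalised replicate fold changes, kanamycin versus none.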

As for UUGUAGCAAUAUUACGGAUU, the “self-splicing fitness (ln)” value (30 °C) is -4.8 ± 1.
For UAAGAGCAAUAUUACGAAGC, the “self-splicing fitness (ln)” value (37 °C) is -2.98 ± 1.1.
On to CGGAAGCAAUAUUACGCUUA, for which, under “30 °C”, the “self-splicing fitness (ln)” value is -3.34 ± 0.74.
Still for that read-out and setting: the value for UCGUAGCAAUAUUACGGAAU was -3.72 ± 0.74.
In the case of GAAGAGCAAUAUUACGGAAU, the “self-splicing fitness (ln)” value is, setting by setting: (30 °C) -2.81 ± 1.1; (37 °C) -2.84 ± 0.61.
AUGGAGCAAUAUUACGCAAA: for the setting “37 °C”, the “self-splicing fitness (ln)” value is -2.13 ± 0.55.
On to CGCGAGCAAUAUUACGCGCU, for which the “self-splicing fitness (ln)” value (30 °C) was -3.63 ± 1.
As for UAUGAGCAAUAUUACGUAAC, under “37 °C”, the “self-splicing fitness (ln)” value was -2.43 ± 1.1.
Take AUGGAGCAAUAUUACGAUAC: the “self-splicing fitness (ln)” value (30 °C) is -4.06 ± 0.73.
UCCGAGCAAUAUUACGUCUG: the “self-splicing fitness (ln)” value (37 °C) is -2.97 ± 0.53.
With CGUGAGCAAUAUUACGCGCU, the “self-splicing fitness (ln)” value (30 °C) is -3.62 ± 0.6.
In the case of UAAGAGCAAUAUUACGGCCU, the “self-splicing fitness (ln)” value (37 °C) was -1.79 ± 0.58.
As to GGUAAGCAAUAUUACGUACU, the “self-splicing fitness (ln)” value (37 °C) is -1.79 ± 1.2.
In the case of ACGUAGCAAUAUUACGCUAC, the “self-splicing fitness (ln)” value is, setting by setting: (30 °C) -0.689 ± 0.64; (37 °C) -1.79 ± 1.2.
As for UCAGAGCAAUAUUACGUCCC, the “self-splicing fitness (ln)” value (37 °C) was -0.0341 ± 0.92.
Regarding UAAGAGCAAUAUUACGCUGC, the “self-splicing fitness (ln)” value (30 °C) is -4.09 ± 1.
In the case of CCCAAGCAAUAUUACGUCAG, the “self-splicing fitness (ln)” value (30 °C) is -4.12 ± 0.17 and the “self-splicing fitness (ln)” value (37 °C) was -1.97 ± 0.13.
Regarding UGACAGCAAUAUUACGCUCC, the “self-splicing fitness (ln)” value is, setting by setting: (30 °C) -1.28 ± 0.13; (37 °C) -0.275 ± 0.14.
Turning to UUCUAGCAAUAUUACGAGGC, the “self-splicing fitness (ln)” value (30 °C) was -3.86 ± 1.
On to GAUCAGCAAUAUUACGUUCC, for which, for the setting “30 °C”, the “self-splicing fitness (ln)” value is -4.36 ± 0.59.
In the case of UGGGAGCAAUAUUACGGUAU, the “self-splicing fitness (ln)” value was -3.3 ± 0.61 (30 °C) and -3.16 ± 1 (37 °C).
As for UUGAAGCAAUAUUACGCGCC, the “self-splicing fitness (ln)” value (30 °C) is -0.966 ± 0.63.
Take UAUAAGCAAUAUUACGAUAC: the “self-splicing fitness (ln)” value (30 °C) was -3.62 ± 0.61.
As for AGACAGCAAUAUUACGAAUA, the “self-splicing fitness (ln)” value reads like this: (30 °C) -2.38 ± 0.24; (37 °C) -1.62 ± 0.19.
With GUUGAGCAAUAUUACGCAUC, for the setting “37 °C”, the “self-splicing fitness (ln)” value is -2.35 ± 0.55.
As for UCAUAGCAAUAUUACGGCGC, the “self-splicing fitness (ln)” value (37 °C) was -1.47 ± 0.87.
Turning to CAAGAGCAAUAUUACGAUAC, the “self-splicing fitness (ln)” value (37 °C) is -3.05 ± 0.74.
Turning to CGUUAGCAAUAUUACGAUAC, for the setting “30 °C”, the “self-splicing fitness (ln)” value is -3.94 ± 0.75.
On the same count and under the same terms, to GUGGAGCAAUAUUACGGCAA belongs -3.14 ± 0.76.
CCGCAGCAAUAUUACGAUAC: the “self-splicing fitness (ln)” value is -2.77 ± 0.28 (30 °C) and -2.19 ± 0.46 (37 °C).
For UUAUAGCAAUAUUACGUAAC the same measures were -3.19 ± 0.78 and -0.228 ± 0.76.
As to UUAUAGCAAUAUUACGGUAU, the “self-splicing fitness (ln)” value was -3.65 ± 0.75 (30 °C) and -1.68 ± 0.52 (37 °C).
For AGUUAGCAAUAUUACGGGGC the same measures were -2.94 ± 0.75 and -1.99 ± 0.66.
Turning to CUGGAGCAAUAUUACGCUAC, the “self-splicing fitness (ln)” value is -3.77 ± 1 (30 °C) and -3.21 ± 0.6 (37 °C).
Regarding CGUUAGCAAUAUUACGCGAG, where the note is “37 °C”, the “self-splicing fitness (ln)” value was -3.38 ± 0.53.
On to ACACAGCAAUAUUACGCGGC, for which the “self-splicing fitness (ln)” value by setting is: (30 °C) -2.29 ± 0.12; (37 °C) -2.92 ± 0.16.
For ACCAAGCAAUAUUACGCGCC, the “self-splicing fitness (ln)” value was -1.35 ± 0.11 (30 °C) and 0.198 ± 0.14 (37 °C).
Take AUGGAGCAAUAUUACGAGCG: the “self-splicing fitness (ln)” value reads like this: (30 °C) -2.91 ± 0.53; (37 °C) -2.76 ± 0.76.
For UCUAAGCAAUAUUACGCACC, under “37 °C”, the “self-splicing fitness (ln)” value was -2.05 ± 0.58.
Turning to UGCGAGCAAUAUUACGAUGG, the “self-splicing fitness (ln)” value is, setting by setting: (30 °C) -3.43 ± 0.2; (37 °C) -1.93 ± 0.17.
With ACGGAGCAAUAUUACGAAAC, the “self-splicing fitness (ln)” value (30 °C) is -4.98 ± 1.
Regarding UCAUAGCAAUAUUACGUACC, the “self-splicing fitness (ln)” value (30 °C) is -2.46 ± 0.65 and the “self-splicing fitness (ln)” value (37 °C) was -2 ± 0.53.
With AGUCAGCAAUAUUACGCGUC, the “self-splicing fitness (ln)” value was -2.65 ± 0.23 (30 °C) and -0.977 ± 0.23 (37 °C).
For the sequence CGUAAGCAAUAUUACGCAGA, the “self-splicing fitness (ln)” value is -2.28 ± 0.27 (30 °C) and -2.67 ± 0.38 (37 °C).
Consider AGGCAGCAAUAUUACGGAUG, for which the “self-splicing fitness (ln)” value runs as follows: (30 °C) -2.3 ± 0.1; (37 °C) -2.58 ± 0.21.
Regarding CUGGAGCAAUAUUACGGCUC, the “self-splicing fitness (ln)” value (37 °C) is -0.693 ± 1.
Consider ACUUAGCAAUAUUACGAAUA, for which the “self-splicing fitness (ln)” value (30 °C) was -2.63 ± 0.56.
Take CCAAAGCAAUAUUACGAUCC: the “self-splicing fitness (ln)” value (37 °C) is -2.69 ± 0.54.
Turning to UGGGAGCAAUAUUACGGAGU, under “37 °C”, the “self-splicing fitness (ln)” value is -2.77 ± 0.61.
